Among the data in ChEMBL document CHEMBL4513141, “CO-ADD screening of NIH (USA) - Clinical Collection” (2021) are Inhibition values, retold here.

This is one part of the list. Measured potencies and affinities stand elsewhere. Square brackets hold non-standard residues; d marks the D form. Peptide text beside a SMILES is read from it. pGlu = O=C1CC[C@@H](C(=O)O)N1; Thz = O=C(O)[C@@H]1CSCN1

The test system of the assay is Acinetobacter baumannii. Particulars: Concentration 20 uM; ASSAY_TEST Inhibition of Bacterial Growth; detection method Absorption (OD600); MEDIA CAMHB; plate type 384well; NBS; CORNING #3640; time 18 hr.
As usually defined, the Inhibition is the drop in the measured response relative to a control, in per cent. A high value points to strong suppression. As to `Nc1ccn([C@@H]2O[C@H](CO)[C@@H](O)[C@@H]2O)c(=O)n1` [CYTARABINE], the Inhibition is given as 23.86%.

In turn, `CC=CC(=O)N(CC)c1ccccc1C` registered an Inhibition of 21.1%.

`Nc1nc2c(ncn2COC(CO)CO)c(=O)[nH]1` [GANCICLOVIR] came in with an Inhibition of 17.44%.

Turning to `Cc1cccc(CCN2CCC(C(=O)c3ccc(NS(C)(=O)=O)cc3)CC2)n1.Cl.Cl`, the Inhibition is 21.77%.

Consider `CC(CN1c2ccccc2Sc2ccccc21)N(C)C.Cl` (stereo not given) [PROMETHAZINE HYDROCHLORIDE], for which the Inhibition amounted to 12.59%.

As to `CCOC(=O)O[C@]1(C(=O)OCCl)CC[C@H]2[C@@H]3CCC4=CC(=O)C=C[C@]4(C)[C@H]3[C@@H](O)C[C@@]21C` [LOTEPREDNOL ETABONATE], the Inhibition was 8.88%.

On to `CCCNC(=O)NS(=O)(=O)c1ccc(Cl)cc1` [CHLORPROPAMIDE], for which the Inhibition is 26.36%.

`CC[C@H](C)C(=O)O[C@H]1CCC=C2C=C[C@H](C)[C@H](CC[C@@H]3C[C@@H](O)CC(=O)O3)[C@H]21` [MEVASTATIN]: the Inhibition was 7.81%.

Take `Cl.O=C(O)/C=C/c1ccc(Cn2ccnc2)cc1`: the Inhibition stood at 7.99%.

As for `O=C1CC[C@@H](C(=O)N2CSC[C@H]2C(=O)O)N1` [PIDOTIMOD] ([pGlu]-[Thz]-OH), the Inhibition is listed as 27.17%.

As to `CCC1(c2ccccc2)C(=O)NCNC1=O` [PRIMIDONE], the Inhibition came out at 25.44%.

As to `Nc1ncnc2c1ncn2[C@@H]1O[C@H](CO)[C@@H](O)[C@@H]1O` [VIDARABINE], the Inhibition is recorded as 33.05%.

In the case of `NC(CO)(CO)CO.O=C(c1ccccc1)c1ccc2n1CCC2C(=O)O` (stereo not given) [KETOROLAC TROMETHAMINE], the Inhibition is on record as 22%.

On to `CCOc1cc(N)c(Cl)cc1C(=O)NCC1CN(Cc2ccc(F)cc2)CCO1.O=C(O)CC(O)(CC(=O)O)C(=O)O` (stereo not given) [MOSAPRIDE CITRATE], for which the Inhibition is given as 22.9%.

`Cl.NC[C@H]1CC[C@H](C(=O)Oc2ccc(CCC(=O)O)cc2)CC1` [CETRAXATE HYDROCHLORIDE] registered an Inhibition of 20.77%.

The molecule `CCOC(=O)[C@H](CCc1ccccc1)N[C@@H](C)C(=O)N1[C@H](C(=O)O)C[C@@H]2CCC[C@@H]21` yielded an Inhibition of 26.7%.

The molecule `CC(C)NCC(O)COc1ccc(CC(N)=O)cc1` (stereo not given) [ATENOLOL] showed an Inhibition of 19.94%.

Molecule `Cc1[nH]cnc1CN1CCc2c(c3ccccc3n2C)C1=O.Cl` [ALOSETRON HYDROCHLORIDE] returned an Inhibition of 10.49%.

Molecule `Cc1ccc(-c2cc(C(F)(F)F)nn2-c2ccc(S(N)(=O)=O)cc2)cc1` [CELECOXIB] showed an Inhibition of 15.77%.

`C[C@@H]1CN(CCCn2c3ccccc3c3ccccc32)C[C@H](C)N1.Cl.O` returned an Inhibition of 9.18%.

As for `Cl.Clc1ccccc1CN1CCc2sccc2C1` [TICLOPIDINE HYDROCHLORIDE], the Inhibition was 14.4%.

In turn, `CC(Cc1ccccc1)(NC(=O)CN)c1ccccc1.Cl` (stereo not given) [REMACEMIDE HYDROCHLORIDE] came in with an Inhibition of 18.89%.

`CNCC(O)c1ccc(O)c(O)c1` (stereo not given) [RACEPINEPHRINE] had an Inhibition of 4%.

In turn, `CC(C)Oc1ccc2c(=O)c(-c3ccccc3)coc2c1` [IPRIFLAVONE] had an Inhibition of 25.6%.

Molecule `CC(=O)Nc1nnc(S(N)(=O)=O)s1` [ACETAZOLAMIDE] registered an Inhibition of 21.28%.

Take `CCCCC(=O)O[C@H]1CC[C@H]2[C@@H]3CCc4cc(O)ccc4[C@H]3CC[C@]12C` [ESTRADIOL VALERATE]: the Inhibition is reported as 28.64%.

As for `CC(COc1ccccc1)NC(C)C(O)c1ccc(O)cc1.Cl` (stereo not given) [ISOXSUPRINE HYDROCHLORIDE], the Inhibition was determined as 22.97%.

In the case of `COc1ccc(Cl)cc1C(=O)NCCc1ccc(S(=O)(=O)NC(=O)NC2CCCCC2)cc1` [GLYBURIDE], the Inhibition is given as 12.14%.

`CN(C)CCCN1c2ccccc2CCc2ccc(Cl)cc21.Cl` [CLOMIPRAMINE HYDROCHLORIDE] showed an Inhibition of 30.63%.

On to `COc1cc2nc(N3CCN(C(=O)C4COc5ccccc5O4)CC3)nc(N)c2cc1OC` (stereo not given) [DOXAZOSIN], for which the Inhibition turned out to be 24.9%.

Molecule `Cc1cccc(C)c1OCC(C)N.Cl` (stereo not given) [MEXILETINE HYDROCHLORIDE] registered an Inhibition of 22.29%.

As for `Cn1nnc2c(C(N)=O)ncn2c1=O` [TEMOZOLOMIDE], the Inhibition is 5.77%.

With `Nc1nc(N)c2nc(-c3ccccc3)c(N)nc2n1`, the Inhibition stood at 11.64%.

In turn, `CC(C)(C)NC[C@H](O)COc1nsnc1N1CCOCC1.O=C(O)/C=C\C(=O)O` [TIMOLOL MALEATE] came in with an Inhibition of 8.85%.

Molecule `C[C@H](CS)C(=O)N1CCC[C@H]1C(=O)O` [CAPTOPRIL] yielded an Inhibition of 30%.

The molecule `O=S(=O)([O-])CCS.[Na+]` [MESNA] showed an Inhibition of 26.36%.

`CC(C)[C@H](N)C(=O)OCCOCn1cnc2c(=O)nc(N)[nH]c21.Cl` [VALACYCLOVIR HYDROCHLORIDE] gave an Inhibition of 7.25%.

`Cl.Nc1c2c(nc3ccccc13)CCCC2` [TACRINE HYDROCHLORIDE] showed an Inhibition of 30.66%.

Consider `CCOC(=O)c1ccc(OC(=O)CCCCCN=C(N)N)cc1.CS(=O)(=O)O`, for which the Inhibition was determined as 25.93%.

As for `O=C(O)c1cccnc1` [NIACIN], the Inhibition is recorded as 23.01%.

For the molecule `CCN(CC)CCNC(=O)c1ccc(N)cc1.Cl` [PROCAINAMIDE HYDROCHLORIDE], the Inhibition stood at 8.37%.

`NNC(=O)c1ccncc1` [ISONIAZID] returned an Inhibition of 18.82%.

As to `Cl.OC(CCN1CCCC1)(c1ccccc1)C1CCCCC1` (stereo not given) [PROCYCLIDINE HYDROCHLORIDE], the Inhibition was determined as 23.66%.

In the case of `COc1ccc(-c2cc(=O)c3c(OC)c(OC)c(OC)c(OC)c3o2)cc1OC` [NOBILETIN], the Inhibition is given as 16.27%.

Turning to `COc1cc(OC)c(C(=O)CCCN2CCCC2)c(OC)c1.Cl`, the Inhibition is 20.1%.

`CC1(C)S[C@@H]2[C@H](NC(=O)[C@H](N)c3ccc(O)cc3)C(=O)N2[C@H]1C(=O)O` [AMOXICILLIN] showed an Inhibition of 22.8%.

`CNNCc1ccc(C(=O)NC(C)C)cc1.Cl` [PROCARBAZINE HYDROCHLORIDE] displayed an Inhibition of 16.44%.

In the case of `CC[N+](C)(CC)CCOC(=O)C(O)(c1ccccc1)C1CCCCC1.[Br-]` (stereo not given) [OXYPHENONIUM BROMIDE], the Inhibition is on record as 27.96%.

`CC(C(=O)[O-])c1ccc(CC2CCCC2=O)cc1.[Na+]` (stereo not given) [LOXOPROFEN SODIUM] had an Inhibition of 25.96%.

The molecule `CN(C)[C@@H]1C(=O)C(C(=O)NCN2CCCC2)=C(O)[C@@]2(O)C(O)=C3C(=O)c4c(O)cccc4[C@@](C)(O)C3CC12` (stereo not given in full) yielded an Inhibition of 12.28%.
